Data from the supplement of paper PMC6411743.
± gives the standard deviation of the averaged measurements. The list shows a part of the results.

By UniProt entry, the sequences of proteins in these tests, tags left out. Where a name states a change or a piece, a line headed by the entry shows the natural chain unless it says otherwise.
UniProt P49368: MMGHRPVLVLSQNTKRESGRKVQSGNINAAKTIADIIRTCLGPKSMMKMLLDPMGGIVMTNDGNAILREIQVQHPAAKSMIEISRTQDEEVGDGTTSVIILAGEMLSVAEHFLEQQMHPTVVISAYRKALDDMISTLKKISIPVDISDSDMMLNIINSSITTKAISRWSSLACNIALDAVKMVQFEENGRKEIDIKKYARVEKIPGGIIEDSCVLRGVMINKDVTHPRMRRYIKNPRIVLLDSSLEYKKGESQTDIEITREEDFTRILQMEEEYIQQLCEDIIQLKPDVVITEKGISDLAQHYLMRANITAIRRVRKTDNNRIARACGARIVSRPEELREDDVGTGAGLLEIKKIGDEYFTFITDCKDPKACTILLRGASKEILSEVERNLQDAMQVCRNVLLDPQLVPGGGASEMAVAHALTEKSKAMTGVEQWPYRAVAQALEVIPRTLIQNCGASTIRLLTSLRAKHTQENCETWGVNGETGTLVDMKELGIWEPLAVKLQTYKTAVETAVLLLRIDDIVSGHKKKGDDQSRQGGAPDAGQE
UniProt P30281: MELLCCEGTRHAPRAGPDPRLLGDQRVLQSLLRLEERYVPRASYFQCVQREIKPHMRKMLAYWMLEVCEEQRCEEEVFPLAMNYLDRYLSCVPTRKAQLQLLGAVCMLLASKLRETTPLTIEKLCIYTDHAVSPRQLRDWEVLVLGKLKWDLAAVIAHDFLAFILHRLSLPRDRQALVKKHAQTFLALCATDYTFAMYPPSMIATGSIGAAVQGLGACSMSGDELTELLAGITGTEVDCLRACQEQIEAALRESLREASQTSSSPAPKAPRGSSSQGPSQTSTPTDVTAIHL
UniProt P30613: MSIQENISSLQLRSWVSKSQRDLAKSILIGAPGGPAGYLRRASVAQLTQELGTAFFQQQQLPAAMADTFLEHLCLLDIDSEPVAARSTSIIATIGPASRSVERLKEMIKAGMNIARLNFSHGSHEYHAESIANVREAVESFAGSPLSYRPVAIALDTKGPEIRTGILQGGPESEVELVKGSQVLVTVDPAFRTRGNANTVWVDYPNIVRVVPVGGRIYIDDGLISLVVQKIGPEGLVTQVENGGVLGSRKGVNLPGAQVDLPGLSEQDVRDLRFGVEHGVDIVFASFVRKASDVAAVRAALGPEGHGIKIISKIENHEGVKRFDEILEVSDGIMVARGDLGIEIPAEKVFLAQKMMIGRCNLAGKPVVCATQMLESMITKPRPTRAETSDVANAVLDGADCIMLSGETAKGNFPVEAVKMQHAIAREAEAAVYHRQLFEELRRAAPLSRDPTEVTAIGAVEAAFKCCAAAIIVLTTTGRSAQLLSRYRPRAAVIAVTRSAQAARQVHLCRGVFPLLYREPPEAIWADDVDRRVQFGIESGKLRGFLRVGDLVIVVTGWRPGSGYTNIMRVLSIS
UniProt P29218: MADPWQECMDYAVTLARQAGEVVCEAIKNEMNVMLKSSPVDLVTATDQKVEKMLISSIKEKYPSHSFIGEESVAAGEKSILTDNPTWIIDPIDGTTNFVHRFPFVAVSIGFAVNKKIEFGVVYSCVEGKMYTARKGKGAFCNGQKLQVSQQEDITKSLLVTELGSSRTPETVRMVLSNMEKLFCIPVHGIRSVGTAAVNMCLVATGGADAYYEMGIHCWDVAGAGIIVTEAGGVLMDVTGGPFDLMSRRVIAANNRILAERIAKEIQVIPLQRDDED

Compound: Nc1nc2c(ncn2[C@@H]2O[C@H](COP(=O)(O)OP(=O)(O)OP(=O)(O)O)[C@@H](O)[C@H]2O)c(=O)[nH]1 [guanosine triphosphate]
Experiment: NP40-soluble protein abundance relative to vehicle (solubility fold change) (ratio); higher = more soluble protein in presence of GTP
Experimental: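 Solubility proteome profiling in Jurkat crude lysate. Lysate was treated with Mg-GTP (0.1-10 mM) for 10 min at room temperature and 3 min at 37 °C, then solubilised with 0.8% NP40 and benzonase, followed by ultracentrifugation. Proteins were quantified by TMT10 LC-MS/MS; the value is the NP40-soluble abundance relative to the NP40-processed vehicle, from 3 independent experiments.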

Row | Target | NP40-soluble protein abundance (concentration: 0.1mM) | NP40-soluble protein abundance (concentration: 0.5mM) | NP40-soluble protein abundance (concentration: 1mM) | NP40-soluble protein abundance (concentration: 2mM) | NP40-soluble protein abundance (concentration: 4mM) | NP40-soluble protein abundance (concentration: 6mM) | NP40-soluble protein abundance (concentration: 8mM) | NP40-soluble protein abundance (concentration: 10mM)
1 | CCT3 (UniProt P49368) | 0.995 ± 0.03 | 1.07 ± 0.1 | 1.08 ± 0.18 | 1.1 ± 0.24 | 1.11 ± 0.24 | 1.06 ± 0.22 | 1.08 ± 0.21 | 1.05 ± 0.23
2 | UniProt P30281 and related entries | 1.05 ± 0.078 | 1.03 ± 0.06 | 0.889 ± 0.03 | 0.941 ± 0.02 | 0.922 ± 0.032 | 0.884 ± 0.0096 | 0.832 ± 0.02 | 0.863 ± 0.06
3 | MRPL19 (UniProt P49406) | 1.11 ± 0.077 | 1.14 ± 0.19 | 1.23 ± 0.3 | 1.33 ± 0.37 | 1.35 ± 0.4 | 1.33 ± 0.36 | 1.34 ± 0.36 | 1.15 ± 0.29
4 | UniProt P30613 and related entries | 1.19 ± 0.25 | 1.21 ± 0.22 | 1.05 ± 0.099 | 1.08 ± 0.23 | 1.01 ± 0.2 | 1.03 ± 0.18 | 0.886 ± 0.16 | 0.804 ± 0.26
5 | UniProt P29218 and related entries | 1 ± 0.03 | 0.998 ± 0.017 | 0.925 ± 0.042 | 0.907 ± 0.05 | 0.89 ± 0.051 | 0.893 ± 0.066 | 0.909 ± 0.042 | 0.87 ± 0.069
